## Library screen at single concentrations

Measurements from “University of Dundee, Small-Polar-MMV Screening Library” (2021), ChEMBL document CHEMBL3988442.

A: 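Whole-parasite assay of Trypanosoma brucei over 72 hours; the read-out is not stated. Tested at 30 µM. The record gives no direction; compounds that gave an IC50 in retests scored well above the rest, so higher reads as stronger inhibition. Values scatter widely below zero; nearly all retest evidence comes from the higher of the two concentrations used. Size under these conditions: about 64,000 compounds, about 940 of them at 50% or above in at least one test.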
B: 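Assay of Toxoplasma gondii numbers, read through their beta-galactosidase reporter with a colour substrate. Tested at 10 µM. Higher reads as fewer parasites (inferred from which compounds were picked for retests). Size under these conditions: about 67,000 compounds, about 260 of them at 50% or above in at least one test.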

Each number is a percent effect as filed. The record does not define 0% and 100%; most values in the screen are far below 50% and negative numbers occur (in some assays of this library far below -100). Compounds were drawn at random from those tested, without regard to their results. A dash means the value is not listed here; it may have been measured.

Compound,A,B
CCC[C@@H]1CN(C(=O)Cc2sc(C)nc2C)C[C@H]1C(=O)O,-157.7%,-2.984%
CCC(=O)c1ccc(OCC(=O)N2CCNCC2C(=O)NC2CC2)cc1 (stereo unspecified),-8.886%,10.16%
CCN(CC)CCCNC(=O)c1nn(CC)cc1Cl,0.9045%,17.44%
COC1CCN(C(=O)Cn2cccc(C(F)(F)F)c2=O)C1 (stereo unspecified),-16.84%,-1.512%
CCC(NC(=O)CC1CCN(CC)CC1)c1cn2cccnc2n1 (stereo unspecified),-21.69%,-4.37%
CC[C@@]1(O)CCN(C(=O)CN(C)Cc2ccc(F)cc2)C[C@H]1O,-,-21.83%
Cc1cccc(NC(=O)N2CCN(Cc3noc(C4CC4)n3)CC2)c1,7.244%,-2.259%
CCc1nnc(N2CCN(CCc3ccccc3)C(=O)C2)o1,-41.72%,-3.699%
CN1CCN(S(=O)(=O)c2cncc(F)c2)c2ccccc2C1,-4.312%,-1.765%
CN1CCCC(c2ccc(N3CCOCC3)cn2)C1.Cl (stereo unspecified),1.358%,-25.33%
[H][C@@]12C[C@H](C(=O)NCC3CC3)CN(Cc3ccoc3)[C@]1([H])CCO2,-,-2.851%
CC1(C(=O)N2CCOCC2)CN(CC2CCOCC2)CCO1 (stereo unspecified),-21.8%,1.655%
Cc1sc(-c2ccco2)nc1C(=O)NCC1CCOC1 (stereo unspecified),-11.5%,1.039%
Cc1cccc(CN2CCC3(CCCN(Cc4cnn(C)c4)C3)C2=O)n1 (stereo unspecified),-3.392%,7.564%
O=C(c1cn(-c2ccccc2Cl)nn1)N1CCCSCC1,-33.86%,1.861%
[H][C@@]12COC[C@]1([H])[C@H](OCc1csc(C)n1)CN2Cc1ccco1,-5.749%,0.3698%
O=C(NCC(F)F)c1cc(-c2ccccc2)nc2ncnn12,-,-0.4394%
CN(Cc1n[nH]c2c1CCCC2)c1nc2c(c(=O)[nH]1)CCNCC2,22.77%,-42.99%
CC(=O)N1CCC(Cc2nccnc2-c2c(C)n[nH]c2C)C1 (stereo unspecified),2.639%,16.78%
CC(C)c1nc(C2CCCN(C(=O)CS(=O)(=O)C(C)C)C2)no1 (stereo unspecified),-4.18%,1.418%
Cc1cnn(CC2CCCCN2C(=O)Cn2nc(C)c(Cl)c2C)c1 (stereo unspecified),-2.706%,6.197%
COc1ccc(C(=O)N(c2ccc(OC)c(F)c2)C(C)C)cn1,-3.102%,2.074%
CCS(=O)(=O)N1CCc2nc(N3CCCC3)nc(N(C)C)c2CC1,-49.62%,4.8%
COc1ccc2c(ccn2CC(=O)N2CCCC2c2cnn(C)c2)c1 (stereo unspecified),-25.78%,-4.872%
Cc1cccn2cc(C[S+]([O-])Cc3noc(C(C)C)n3)nc12 (stereo unspecified),6.185%,7.5%
Cn1cc(CN2CC[C@]3(C[C@H](Oc4ccccn4)CO3)C2)cn1.O=C(O)C(F)(F)F.O=C(O)C(F)(F)F,-1.442%,-14.1%
CC(Cc1c(F)cccc1F)NC(=O)NCc1ncnn1C (stereo unspecified),-14.74%,-10.08%
COc1ccc2c(ccn2CC(=O)Nc2n[nH]c(CC(C)C)n2)c1,-2.098%,-
CCn1nnc2c1C(COC)CN(C(=O)Cc1ccccn1)C2 (stereo unspecified),0.337%,-4.986%
COCCNC(=O)NC(c1ccccc1)c1ccccc1OC (stereo unspecified),-4.58%,11.62%
CCN(Cc1nc2c(cnn2C)c(=O)[nH]1)c1ccccc1C,-1.188%,4.661%
CCc1ccc(C(=O)N2CCN(CC(O)c3ccccc3)CC2)o1 (stereo unspecified),-8.914%,-1.946%
Cc1ccc(OCC(=O)NC2CCN(S(C)(=O)=O)CC2)cc1,-,-8.18%
Cc1cnc(CN(C)C2CCN(CCn3cc(C#N)cn3)C2)o1 (stereo unspecified),-29.26%,-1.321%
C[C@H](NC(=O)C1CCCC1)c1nc2cc(-c3ccc(F)cc3)ncn2n1,-29.23%,6.253%
c1ccc2c(NC3CCc4ncnn4C3)ncnc2c1 (stereo unspecified),-6.807%,-16.47%
O=C(c1ccc2c(c1)CCCC2)N1CCCC(n2cncn2)C1 (stereo unspecified),-17.57%,-0.9153%
CNC(=O)c1cn[nH]c1C1CCCN1C(=O)c1cccnc1 (stereo unspecified),-17.23%,6.158%
CC(C1CC1)N(C)Cc1nnc(-c2ccco2)o1 (stereo unspecified),-11.66%,-3.932%
CCN(CC)C(=O)CN1CCC2(C=Cc3cc(Cl)c(C)cc3O2)CC1,99.22%,40.11%
COc1cc(C2CC(=O)Oc3cc(C)[nH]c(=O)c32)ccc1OC(F)F (stereo unspecified),4.996%,3.706%
Cc1ccoc1C(=O)N1CCCC(CNS(C)(=O)=O)C1 (stereo unspecified),-19.64%,-9.362%
CCOC(=O)N1CCCC2(CCN(Cc3ccccc3C#N)C2)C1 (stereo unspecified),-15.95%,4.243%
[H][C@]12CC[C@]([H])(CN(Cc3ccncc3)C1)N(C(=O)OC)C2,-63.75%,-7.176%
O=C(c1ccno1)N1CCC2(CC(=O)N(c3ccc4c(c3)OCO4)C2)C1 (stereo unspecified),-20.8%,-4.961%
COCC(O)CN(C)c1ccnc2cc(Br)ccc12 (stereo unspecified),-14.06%,-5.295%
CCSCCOC(=O)CCCc1ccc2c(c1)CC(=O)N2,11.9%,-4.682%
O=C(O)C(F)(F)F.[H][C@@]12COC[C@]1(C(=O)NC(C)C)CN(Cc1scnc1C)C2,-19.9%,-13.26%
Cc1nc(C(=O)N(CC(=O)N(C)C)CC(F)(F)F)c2ccccn12,-48.97%,17.12%

The last 4 entries again:

Compound	A	B
COCC(O)CN(C)c1ccnc2cc(Br)ccc12 (stereo unspecified)	-14.06%	-5.295%
CCSCCOC(=O)CCCc1ccc2c(c1)CC(=O)N2	11.9%	-4.682%
O=C(O)C(F)(F)F.[H][C@@]12COC[C@]1(C(=O)NC(C)C)CN(Cc1scnc1C)C2	-19.9%	-13.26%
Cc1nc(C(=O)N(CC(=O)N(C)C)CC(F)(F)F)c2ccccn12	-48.97%	17.12%